Data reported in PMC12489474, “New structural insights into the control of the retinoic acid receptors RAR/RXR by DNA, ligands, and transcriptional coregulators” (Nucleic Acids Research, 2025).
Results are given in words; binding and its absence hold for the method and conditions named. Some results given as binding are weak or reduced against the parent protein; the word gives no strength.

How the values were obtained:
[1] = target: T1, NCoRNID (nuclear receptor interaction domain of the Nuclear receptor CoRepressor) (UniProt Q60974); assay: HDX-MS; RAR/RXR and RR–DNA (DR0, DR1, DR5, IR0) with and without NCoRNID, with BMS493; 4°C, 20 μM complex diluted 10-fold into deuterated buffer pD 7.5; 4 s to 10 800 s; RAR and RXR read as subunits of the heterodimer; both purified
T1 sequence: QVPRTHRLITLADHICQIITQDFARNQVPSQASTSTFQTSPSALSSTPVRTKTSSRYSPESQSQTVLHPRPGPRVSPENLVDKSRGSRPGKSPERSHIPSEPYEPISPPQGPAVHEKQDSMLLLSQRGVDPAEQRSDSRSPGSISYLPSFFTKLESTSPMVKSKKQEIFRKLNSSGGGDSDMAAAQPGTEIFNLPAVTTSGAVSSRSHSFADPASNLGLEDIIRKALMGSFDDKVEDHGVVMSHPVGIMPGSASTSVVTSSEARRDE

[2] = target: T1, NCoRNID (nuclear receptor interaction domain of the Nuclear receptor CoRepressor); assay: SEC-SAXS; RAR/RXR bound to DR0L, DR1, DR5 or IR0 with BMS493, without and with NCoRNID; Superdex 200 Increase 10/300 GL, 20 mM Tris–HCl pH 7.5, 75 mM NaCl, 75 mM KCl, 2 mM CHAPS, 4 mM MgCl2, 12 mM TCEP; 15°C; both purified

Row | Binder | binding [1] | binding [2]
1 | RAR/RXR heterodimer (RARAΔABF with RXRAΔAB) (complex, retinoic acid receptor alpha, residues 82-421 of Uniprot entry P11416; as the chain of m1; as the chain of m2; 1:1 heterodimer by SEC-MALS; this is told in the format of each assay; also called RR–DR0; source: E. coli BL21 (DE3); RAR and RXR purified separately, mixed (2-fold excess of RAR), heterodimer purified by SEC (Superdex 200); not shown: His6, N-terminal, cleaved) chain 1: PRIYKPCFVCQDKSSGYHYGVSACEGCKGFFRRSIQKNMVYTCHRDKNCIINKVTRNRCQYCRLQKCFDVGMSKESVRNDRNKKKKEAPKPECSESYTLTPEVGELIEKVRKAHQETFPALCQLGKYTTNNSSEQRVSLDIDLWDKFSELSTKCIIKTVEFAKQLPGFTTLTIADQITLLKAACLDILILRICTRYTPEQDTMTFSDGLTLNRTQMHNAGFGPLTDLVFAFANQLLPLEMDDAETGLLSAICLICGDRQDLEQPDKVDMLQEPLLEALKVYVRKRRPSRPHMFPKMLMKITDLRSISAKGAERVITLKMEIPGSMPPLIQEMLENSEGLD chain 2: NMASFTKHICAICGDRSSGKHYGVYSCEGCKGFFKRTVRKDLTYTCRDNKDCLIDKRQRNRCQYCRYQKCLAMGMKREAVQEERQRGKDRNENEVESTSSANEDMPVERILEAELAVEPKTETYVEANMGLNPSSPNDPVTNICQAADKQLFTLVEWAKRIPHFSELPLDDQVILLRAGWNELLIASFSHRSIAVKDGILLATGLHVHRNSAHSAGVGAIFDRVLTELVSKMRDMQMDKTELGCLRAIVLFNPDSKGLSNPAEVEALREKVYASLEAYCKHKYPEQPGRFAKLLLRLPALRSIGLKCLEHLFFFKLIGDTPIDTFLMEMLEAPHQMT | binds | binds
2 | MmRARAΔABF (retinoic acid receptor alpha without the A/B and F domains) (domain or fragment, UniProt P11416 82-421, looked up, retinoic acid receptor alpha, residues 82-421 of Uniprot entry P11416 (DBD, hinge and LBD; A/B and F domains removed); In the rows of this molecule it stood as a subunit of the RAR/RXR heterodimer; Vector pET15b; also called RARα; NR1B1; source: E. coli BL21 (DE3), purified (HisTrap HP)) PRIYKPCFVCQDKSSGYHYGVSACEGCKGFFRRSIQKNMVYTCHRDKNCIINKVTRNRCQYCRLQKCFDVGMSKESVRNDRNKKKKEAPKPECSESYTLTPEVGELIEKVRKAHQETFPALCQLGKYTTNNSSEQRVSLDIDLWDKFSELSTKCIIKTVEFAKQLPGFTTLTIADQITLLKAACLDILILRICTRYTPEQDTMTFSDGLTLNRTQMHNAGFGPLTDLVFAFANQLLPLEMDDAETGLLSAICLICGDRQDLEQPDKVDMLQEPLLEALKVYVRKRRPSRPHMFPKMLMKITDLRSISAKGAERVITLKMEIPGSMPPLIQEMLENSEGLD | binds | –
